According to publication PMC3037357:
These are yes or no findings as the source states them, for the method shown. Binding seen in cells or lysates may run through a third protein. Some binding calls cover weakened binding; strength is not graded here.

Amino acid sequences for entries named in this document (tags omitted).
UniProt Q12824: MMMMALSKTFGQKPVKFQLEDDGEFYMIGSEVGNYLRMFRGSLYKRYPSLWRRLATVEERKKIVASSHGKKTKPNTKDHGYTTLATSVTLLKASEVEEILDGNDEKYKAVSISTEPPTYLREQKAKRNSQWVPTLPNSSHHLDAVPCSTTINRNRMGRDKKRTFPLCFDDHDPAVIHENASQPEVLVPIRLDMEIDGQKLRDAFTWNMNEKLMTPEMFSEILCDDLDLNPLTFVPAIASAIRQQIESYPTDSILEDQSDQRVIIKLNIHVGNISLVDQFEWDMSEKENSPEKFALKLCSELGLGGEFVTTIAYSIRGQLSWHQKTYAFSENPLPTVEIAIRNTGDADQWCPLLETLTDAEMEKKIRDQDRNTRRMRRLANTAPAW
UniProt Q969G3: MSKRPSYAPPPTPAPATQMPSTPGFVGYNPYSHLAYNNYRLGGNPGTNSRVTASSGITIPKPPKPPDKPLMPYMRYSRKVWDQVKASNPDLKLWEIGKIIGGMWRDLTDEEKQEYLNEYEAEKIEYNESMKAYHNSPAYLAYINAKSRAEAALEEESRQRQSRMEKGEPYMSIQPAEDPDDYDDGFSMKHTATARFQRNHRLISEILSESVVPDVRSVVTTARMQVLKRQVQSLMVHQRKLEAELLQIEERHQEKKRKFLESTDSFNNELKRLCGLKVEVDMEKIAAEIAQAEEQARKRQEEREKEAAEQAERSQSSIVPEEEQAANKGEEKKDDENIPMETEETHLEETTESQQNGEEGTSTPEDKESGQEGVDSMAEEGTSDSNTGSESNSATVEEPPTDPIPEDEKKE

Target: Flag-tagged INI1 expressed in HeLa S3 cells (human) (UniProt Q12824)
Experiment: co-IP; affinity purification of the epitope-tagged SWI/SNF complex from nuclear extracts of HeLa S3 cells expressing Flag-tagged INI1; BAF57 found in the purified complex with α-BAF57 antibodies (immunoprecipitation and Western blot)

binding: binds
Substance: BAF57/SMARCE1 (from UniProt Q969G3 1-411)
